Test results reported in patent US10111876B2, “ALK Kinase Inhibitor and its use” (Macau University of Science and Technology, priority 2016, dated 2018).
At least one structure is not confirmed: it was looked up by name or label, or the drawing left a doubt.

Tests used:
Type in all cases: cell-based
H2228 cells [1] = test: Colony formation assay of H2228 cells; conditions: 10 μM, exposed for two weeks
[2] = test system: ERK, AKT and STAT3 phosphorylation; test: Western blot of downstream signaling in H2228 cells; conditions: H2228 cells, 2.5, 5 or 10 μM
ALK phosphorylation = test: Western blot of ALK phosphorylation in H2228 cells; conditions: H2228 cells, 2.5, 5 or 10 μM
H2228 cells [3] = test: Annexin V-FITC/PI flow cytometry apoptosis assay in H2228 cells; conditions: 48 h, 2.5, 5 or 10 μM, compared with the control group

## Cc1sc2nc3c4ccccc4c(NCCCN(C)C)nn3c(=O)c2c1C [Formula (V)]
H2228 cells [1]
  colony formation: formed no visible colonies
[2]
  downregulation of ERK, AKT and STAT3 phosphorylation: Strong downregulation of ERK, AKT and STAT3 phosphorylation
ALK phosphorylation
  suppression of ALK phosphorylation: exceptional suppression of ALK phosphorylation
H2228 cells [3]
  induction of cell apoptosis: induced significant levels of cell apoptosis
